In the supplement of paper PMC6078165:
± gives the standard deviation of the averaged measurements. The reference is the same well before dosing, and untreated signal decays as well.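 Fibroblast labels denote human fibroblasts, mainly primary ones from uterus (C12385, HUF), lung (H6013), bone (Hs27A), adrenal (HADF) and skin (WS1), plus mammary HMF and breast cancer-associated Hs343T. Cancer cells are basal-like or mesenchymal-like triple-negative breast cancer lines. A hit is a response shift exceeding 3x replicate standard deviation. The tissue of the other fibroblasts is not given here.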

System: MDAMB231
Assay: relative JC-1 red fluorescence (viability) vs pre-drug, coculture with fibroblast (fraction); higher = more viable cancer cells
Procedure: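 JC-1 labelled TNBC cells cocultured 1:1 (1,500 cells each) with CellTrace Violet stained primary or stromal fibroblasts in 384-well plates in FluoroBrite medium, treated with one of 42 anticancer drugs at 0.1, 1, 10 or 100 uM. JC-1 red fluorescence (mitochondrial integrity in cancer cells only) was read by plate reader every 8 h for 72 h. Values are normalised to each well's pre-drug value. The stock of one drug was tenfold lower, so its dose labels may be too high.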

Nc1ccn([C@@H]2O[C@H](CO)[C@@H](O)C2(F)F)c(=O)n1 [Gemcitabine]
relative JC-1 red fluorescence
Conditions | 8 h | 16 h | 24 h | 32 h | 40 h | 48 h | 56 h | 64 h | 72 h
10 µM, coculture fibroblast: C12385 | 0.7806 ± 0.0021 | 0.711 ± 0.021 | 0.64 ± 0.0084 | 0.623 ± 0.014 | 0.571 ± 0.0063 | 0.5378 ± 0.002 | 0.4907 ± 0.00073 | 0.486 ± 0.012 | 0.469 ± 0.023
10 µM, coculture fibroblast: H6013 | 0.892 ± 0.023 | 0.842 ± 0.016 | 0.795 ± 0.012 | 0.759 ± 0.016 | 0.705 ± 0.021 | 0.655 ± 0.025 | 0.621 ± 0.013 | 0.589 ± 0.006 | 0.539 ± 0.016
10 µM, coculture fibroblast: H6019 | 0.8026 ± 0.0057 | 0.737 ± 0.013 | 0.6721 ± 0.0029 | 0.663 ± 0.011 | 0.606 ± 0.014 | 0.575 ± 0.013 | 0.528 ± 0.0092 | 0.52 ± 0.0066 | 0.492 ± 0.0074
10 µM, coculture fibroblast: H6076 | 0.91 ± 0.034 | 0.829 ± 0.057 | 0.774 ± 0.079 | 0.733 ± 0.083 | 0.663 ± 0.075 | 0.606 ± 0.069 | 0.562 ± 0.081 | 0.534 ± 0.084 | 0.524 ± 0.089
10 µM, coculture fibroblast: H6231 | 0.791 ± 0.13 | 0.868 ± 0.14 | 0.8 ± 0.13 | 0.745 ± 0.12 | 0.695 ± 0.12 | 0.653 ± 0.1 | 0.609 ± 0.081 | 0.582 ± 0.061 | 0.55 ± 0.036
10 µM, coculture fibroblast: HADF | 0.869 ± 0.029 | 0.8332 ± 0.0047 | 0.8098 ± 0.0021 | 0.7674 ± 0.0034 | 0.7303 ± 0.004 | 0.67 ± 0.013 | 0.649 ± 0.0091 | 0.603 ± 0.016 | 0.547 ± 0.028
10 µM, coculture fibroblast: HCFa | 0.88599 ± 0.00037 | 0.8329 ± 0.0015 | 0.8 ± 0.0097 | 0.766 ± 0.015 | 0.724 ± 0.018 | 0.67 ± 0.033 | 0.639 ± 0.042 | 0.594 ± 0.038 | 0.535 ± 0.027
10 µM, coculture fibroblast: HCPF | 0.889 ± 0.032 | 0.779 ± 0.036 | 0.727 ± 0.021 | 0.71 ± 0.021 | 0.663 ± 0.023 | 0.618 ± 0.021 | 0.576 ± 0.027 | 0.549 ± 0.022 | 0.524 ± 0.017
10 µM, coculture fibroblast: HHSteC | 0.8904 ± 0.0022 | 0.821 ± 0.023 | 0.791 ± 0.033 | 0.757 ± 0.032 | 0.712 ± 0.029 | 0.678 ± 0.026 | 0.625 ± 0.017 | 0.6 ± 0.02 | 0.544 ± 0.0073
10 µM, coculture fibroblast: HMF | 0.839 ± 0.11 | 0.879 ± 0.12 | 0.811 ± 0.15 | 0.759 ± 0.14 | 0.697 ± 0.13 | 0.643 ± 0.11 | 0.568 ± 0.082 | 0.534 ± 0.066 | 0.494 ± 0.039
10 µM, coculture fibroblast: HPFa | 0.935 ± 0.017 | 0.8711 ± 0.0011 | 0.8256 ± 0.002 | 0.7765 ± 0.0044 | 0.747 ± 0.025 | 0.7 ± 0.052 | 0.651 ± 0.057 | 0.616 ± 0.045 | 0.566 ± 0.067
10 µM, coculture fibroblast: HUF | 0.87 ± 0.056 | 0.724 ± 0.066 | 0.699 ± 0.024 | 0.594 ± 0.033 | 0.536 ± 0.027 | 0.511 ± 0.019 | 0.466 ± 0.014 | 0.46643 ± 0.00024 | 0.46 ± 0.0073
10 µM, coculture fibroblast: Hs5 | 0.94 ± 0.013 | 0.842 ± 0.018 | 0.785 ± 0.014 | 0.745 ± 0.026 | 0.686 ± 0.011 | 0.614 ± 0.0089 | 0.5673 ± 0.0032 | 0.5349 ± 0.0019 | 0.5165 ± 0.005
10 µM, coculture fibroblast: Hs27A | 0.908 ± 0.011 | 0.8427 ± 0.0033 | 0.813 ± 0.0093 | 0.8 ± 0.022 | 0.755 ± 0.034 | 0.677 ± 0.051 | 0.683 ± 0.052 | 0.65 ± 0.058 | 0.605 ± 0.063
10 µM, coculture fibroblast: Hs343T | 0.854 ± 0.001 | 0.782 ± 0.0082 | 0.737 ± 0.017 | 0.704 ± 0.011 | 0.666 ± 0.012 | 0.625 ± 0.0064 | 0.552 ± 0.013 | 0.521 ± 0.029 | 0.486 ± 0.038
10 µM, coculture fibroblast: WS1 | 0.7653 ± 0.0076 | 0.682 ± 0.0071 | 0.613 ± 0.027 | 0.5857 ± 0.0046 | 0.54 ± 0.016 | 0.512 ± 0.027 | 0.46 ± 0.028 | 0.458 ± 0.035 | 0.439 ± 0.033
100 µM, coculture fibroblast: C12385 | 0.749 ± 0.021 | 0.727 ± 0.01 | 0.603 ± 0.04 | 0.6 ± 0.022 | 0.529 ± 0.03 | 0.505 ± 0.035 | 0.457 ± 0.042 | 0.452 ± 0.048 | 0.433 ± 0.043
100 µM, coculture fibroblast: H6013 | 0.8981 ± 0.0042 | 0.8558 ± 0.00093 | 0.835 ± 0.021 | 0.81 ± 0.015 | 0.742 ± 0.036 | 0.708 ± 0.05 | 0.681 ± 0.049 | 0.657 ± 0.049 | 0.629 ± 0.053
100 µM, coculture fibroblast: H6019 | 0.764 ± 0.029 | 0.693 ± 0.025 | 0.636 ± 0.018 | 0.604 ± 0.016 | 0.552 ± 0.013 | 0.525 ± 0.022 | 0.48 ± 0.028 | 0.488 ± 0.035 | 0.462 ± 0.017
100 µM, coculture fibroblast: H6076 | 0.907 ± 0.015 | 0.827 ± 0.056 | 0.807 ± 0.079 | 0.786 ± 0.08 | 0.744 ± 0.079 | 0.692 ± 0.077 | 0.654 ± 0.046 | 0.626 ± 0.043 | 0.619 ± 0.042
100 µM, coculture fibroblast: H6231 | 0.851 ± 0.12 | 0.897 ± 0.081 | 0.814 ± 0.097 | 0.753 ± 0.084 | 0.679 ± 0.079 | 0.632 ± 0.062 | 0.576 ± 0.066 | 0.535 ± 0.061 | 0.497 ± 0.046
100 µM, coculture fibroblast: HADF | 0.89 ± 0.011 | 0.837 ± 0.034 | 0.811 ± 0.035 | 0.785 ± 0.033 | 0.742 ± 0.013 | 0.707 ± 0.023 | 0.684 ± 0.036 | 0.647 ± 0.031 | 0.598 ± 0.032
100 µM, coculture fibroblast: HCFa | 0.9118 ± 0.0054 | 0.839 ± 0.015 | 0.797 ± 0.037 | 0.762 ± 0.033 | 0.71 ± 0.065 | 0.651 ± 0.065 | 0.612 ± 0.073 | 0.567 ± 0.057 | 0.508 ± 0.069
100 µM, coculture fibroblast: HCPF | 0.881 ± 0.053 | 0.774 ± 0.048 | 0.6989 ± 0.0031 | 0.679 ± 0.028 | 0.628 ± 0.041 | 0.597 ± 0.058 | 0.566 ± 0.068 | 0.539 ± 0.078 | 0.512 ± 0.1
100 µM, coculture fibroblast: HHSteC | 0.8997 ± 0.0053 | 0.839 ± 0.0099 | 0.798 ± 0.019 | 0.762 ± 0.021 | 0.717 ± 0.011 | 0.676 ± 0.02 | 0.628 ± 0.0067 | 0.59 ± 0.018 | 0.532 ± 0.016
100 µM, coculture fibroblast: HMF | 0.859 ± 0.012 | 0.756 ± 0.015 | 0.723 ± 0.022 | 0.692 ± 0.019 | 0.647 ± 0.021 | 0.624 ± 0.012 | 0.593 ± 0.0069 | 0.5817 ± 0.0023 | 0.562 ± 0.0063
100 µM, coculture fibroblast: HPFa | 0.9487 ± 0.0028 | 0.892 ± 0.01 | 0.847 ± 0.0023 | 0.812 ± 0.013 | 0.783 ± 0.01 | 0.74496 ± 0.0004 | 0.68941 ± 0.00014 | 0.664 ± 0.022 | 0.616 ± 0.029
100 µM, coculture fibroblast: HUF | 0.842 ± 0.0071 | 0.724 ± 0.014 | 0.712 ± 0.009 | 0.601 ± 0.015 | 0.5383 ± 0.0047 | 0.5265 ± 0.0015 | 0.481 ± 0.01 | 0.489 ± 0.016 | 0.481 ± 0.021
100 µM, coculture fibroblast: Hs5 | 0.9108 ± 0.0063 | 0.8209 ± 0.0056 | 0.779 ± 0.01 | 0.735 ± 0.021 | 0.692 ± 0.028 | 0.642 ± 0.03 | 0.616 ± 0.042 | 0.59 ± 0.046 | 0.587 ± 0.052
100 µM, coculture fibroblast: Hs27A | 0.8943 ± 0.0081 | 0.844 ± 0.015 | 0.823 ± 0.026 | 0.797 ± 0.031 | 0.759 ± 0.034 | 0.699 ± 0.041 | 0.703 ± 0.053 | 0.688 ± 0.057 | 0.636 ± 0.05
100 µM, coculture fibroblast: Hs343T | 0.913 ± 0.015 | 0.8 ± 0.013 | 0.731 ± 0.013 | 0.689 ± 0.023 | 0.639 ± 0.03 | 0.594 ± 0.026 | 0.533 ± 0.027 | 0.501 ± 0.018 | 0.457 ± 0.014
100 µM, coculture fibroblast: WS1 | 0.769 ± 0.0059 | 0.7 ± 0.011 | 0.677 ± 0.0077 | 0.6354 ± 0.0051 | 0.601 ± 0.013 | 0.582 ± 0.018 | 0.545 ± 0.021 | 0.54 ± 0.031 | 0.524 ± 0.033
